PubChem BioAssay AID2685 (National Center for Advancing Translational Sciences (NCATS), 2010)
This is one part of the list. These are further read-outs of the screen, such as a control signal, another cell line or another target. No call is given for them. Compounds called inactive in the main read-out are mostly missing here. Potencies come from curve fits of mixed quality, noted in brackets.

Assay: qHTS Assay for Lipid Storage Modulators in Drosophila S3 Cells;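 on cell number change: cells counted by Cell Tracker Red CMTPX staining in the red channel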
Conditions: BODIPY lipid droplet fluorescence, 18-24 h; for cell number change: measured here: cell count max response, cells fed with added oleic acid
Outline: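 Laser-scanning cytometry quantifies lipid droplet accumulation (500–530 nm total intensity; droplet/cell object ratio) in oleic acid-fed (400 uM added) Drosophila S3 cells treated with a concentration series. 20 uM Triacsin C defined 100% inhibition.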

[1] = measured here: cell number channel AC50, cells fed with added oleic acid
[2] = measured here: lipid fluorescence (Fed channel) AC50, cells fed with added oleic acid

Work on `O=C(CSc1nnc(CNC(=O)c2cccc(C(F)(F)F)c2)o1)NCc1ccco1` yielded a cell number change of -20.8%.
With `C[C@@H]1C(=O)O[C@H]2[C@H]1CC[C@@]1(C)C(=O)C=C[C@@](C)(O)[C@H]21` the cell number change was -15.6% and the AC50 [1] was 2.59 µM [falling, partial curve, poor fit].
With `CNC(=S)N(CCc1c(C)[nH]c2ccc(C)cc12)Cc1ccc(OC)c(OC)c1` the cell number change was 11.7% and the AC50 [2] was 0.411 µM [rising, full curve].
`COc1ccccc1CCC(=O)Oc1ccccc1C#N` gave a cell number change of 2.7%.
In the case of `COc1ccc(CN(C)CC(=O)Nc2ccccc2C(F)(F)F)c(OC)c1`, the cell number change was -24.3%, the AC50 [1] was 0.82 µM [rising, full curve] and the AC50 [2] was 18.4 µM [rising, partial curve].
For `O=C1c2ccccc2C(=O)N1CCn1nc(Cl)nc1Cl`, the cell number change was 24% and the AC50 [2] was 1.03 µM [rising, full curve].
With `Nc1ccc(-c2n[nH]c(=O)c3ccccc23)cc1N` the cell number change was 0.219% and the AC50 [2] was 8.2 µM [rising, partial curve].
For `Cc1nn(-c2cccc(Cl)c2)c(Cl)c1/C=N/NC(=O)c1cccnc1`, the cell number change was -34.1% and the AC50 [1] was 32.6 µM [falling, single point].
In the case of `Cc1onc(-c2c(Cl)cccc2Cl)c1C(N)=S`, the cell number change was -21.1% and the AC50 [2] was 6.51 µM [rising, single point].
For `Cc1cc(C)c(C)c(S(=O)(=O)N2CCN(C(=O)c3ccccn3)CC2)c1C`, the cell number change was 23.4% and the AC50 [2] was 25.9 µM [rising, single point].
With `NCC(c1ccccc1)c1c[nH]c2ccccc12` (stereo not given) the cell number change was -33.1% and the AC50 [2] was 10 µM [rising, partial curve, poor fit].
With `CCOc1ccc2nc(N(CCN(C)C)C(=O)c3cc4ccccc4cc3OC)sc2c1` the cell number change was 73.3%, the AC50 [1] was 11.6 µM [rising, partial curve, poor fit] and the AC50 [2] was 1.46 µM [rising, partial curve].
For `COc1cc(CNC2CCCC2)c(Br)cc1OCc1ccccc1`, the cell number change was 119% and the AC50 [1] was 8.2 µM [rising, partial curve].
With `CCOC(=O)[C@H]1[C@H]2COc3ccc(Cl)cc3[C@@H]2N2C(=O)c3ccc(Cl)cc3NC(=O)[C@@]12C` the cell number change was 0.984% and the AC50 [2] was 32.6 µM [falling, single point].
With `Nc1ncnc(Sc2ccc(Cl)cc2)c1[N+](=O)[O-]` the AC50 [1] was 0.58 µM [falling, partial curve] and the AC50 [2] was 2.06 µM [falling, partial curve].
In the case of `CC(=O)N1N=C(N)SC12CCCC2`, the cell number change was -23.1% and the AC50 [2] was 0.92 µM [falling, full curve, poor fit].
In the case of `O=C(NCCC(=O)N1CCN(S(=O)(=O)c2ccc(Cl)cc2)CC1)Nc1ccccc1`, the cell number change was 78.5% and the AC50 [1] was 20.6 µM [rising, single point].
In the case of `Cc1onc(-c2ccccc2Cl)c1C(=O)OCc1cnc(Cl)s1`, the cell number change was 21.4% and the AC50 [1] was 0.411 µM [rising, single point].
In the case of `CCn1c(CCNS(=O)(=O)c2ccccc2Br)nnc1SC`, the cell number change was -6.25% and the AC50 [2] was 0.116 µM [rising, single point].
With `Cc1cccc(NC(=O)C2CCN(S(=O)(=O)c3ccc4c(c3)OCCCO4)CC2)n1` the cell number change was 58.6% and the AC50 [1] was 14.6 µM [rising, partial curve, poor fit].
Molecule `CC(C)c1ccc(OCc2ccc(C(=O)N3CCN(c4ccccn4)CC3)cc2)cc1` has a cell number change of 4.32%.
For `O=C(CN1C(=O)CCSc2ccccc21)Nc1ccc2c(c1)OCCO2`, the cell number change was 12% and the AC50 [2] was 0.82 µM [rising, full curve, poor fit].
`CCCCNC(=O)[C@H](Cc1c[nH]c2ccccc12)NC(=O)c1ccccc1Cl` gave a cell number change of 7.29%.
`Cc1cc(OCC(=O)N2CCN(c3ccccc3)CC2)c2c(C)c(C)c(=O)oc2c1` gave a cell number change of 8.73%.
For `O=C1c2cccc3cccc(c23)C(=O)N1Cc1ccccc1`, the cell number change was -5.21% and the AC50 [2] was 14.6 µM [falling, partial curve].
For `CCOCCSc1n[nH]c(=O)n1CCc1ccccc1`, the cell number change was -3.97% and the AC50 [2] was 0.651 µM [rising, single point].
In the case of `COCCn1c(C(C)C)nc2ccccc21`, the cell number change was -16.1% and the AC50 [2] was 0.82 µM [falling, full curve, poor fit].
With `O=C1CCCC2=C1C1O[C@](c3ccsc3)(Cc3c1ccc1ccccc31)O2` the cell number change was 11.3%.
With `COc1ccc2cc(CN(CCCN3CCOCC3)Cc3nnnn3C3CCCC3)c(=O)[nH]c2c1` the cell number change was -36.2%, the AC50 [1] was 32.6 µM [falling, single point] and the AC50 [2] was 4.11 µM [falling, full curve, poor fit].
With `COc1cccc(S(=O)(=O)NCc2ccc(C(=O)Nc3ccc(Cl)c(Cl)c3)cc2)c1` the cell number change was 44.9% and the AC50 [1] was 32.6 µM [rising, single point].
In the case of `CCCC(CCC(=O)NC1CCCCC1)C(=O)O` (stereo not given), the cell number change was -10.7% and the AC50 [2] was 0.651 µM [falling, single point].
For `Cc1cc(C)c(NC(=O)CNC(=O)Cc2sc(C)nc2-c2ccc(F)cc2)c(C)c1`, the AC50 [1] was 0.13 µM [rising, partial curve] and the AC50 [2] was 0.116 µM [rising, full curve].
With `CCCc1oc(C(=O)O)cc1CN` the cell number change was -38%, the AC50 [1] was 3.26 µM [falling, full curve] and the AC50 [2] was 4.11 µM [rising, single point].
With `Cc1nn(C)cc1/C=N\NC(=O)Cc1ccc([N+](=O)[O-])cc1` the cell number change was 11.7% and the AC50 [2] was 0.731 µM [falling, full curve].
For `OCCC#Cc1ccc(CN2CCN(Cc3ccsc3)C(CCO)C2)cc1` (stereo not given), the cell number change was -15.6%.
In the case of `CCOc1ccc(C2/C(=C(/O)c3ccc(OC)cc3)C(=O)C(=O)N2c2cc(C)on2)cc1OC` (stereo not given), the cell number change was 11.1% and the AC50 [2] was 0.411 µM [falling, partial curve, poor fit].
For `CCCC(=O)N(c1ccc2oc(=O)sc2c1)S(=O)(=O)c1cccs1`, the cell number change was -5.91% and the AC50 [2] was 29.1 µM [falling, single point].
With `Cc1ccc(CNC(=O)C2CC3Cn4c(nc5cc6ccccc6cc54)C3N2C)o1` (stereo not given) the cell number change was 25.3% and the AC50 [2] was 13 µM [rising, partial curve].
With `O=C(CC1C(=O)NCCN1Cc1ccccc1C(F)(F)F)NCCN1CCCCC1=O` (stereo not given) the cell number change was -37.5% and the AC50 [1] was 29.1 µM [falling, single point].
